Results reported in patent US11273167B2, “Compositions and methods for modulating ABHD2 activity” (The Regents of the University of California, priority 2015, dated 2022).
For at least one compound, name, drawing or mass did not settle the structure.

Experiments:
[1] = molecular target: T1, ABHD2 (Homo sapiens, UniProt P08910); assay: P4* UV cross-linking and streptavidin pull-down from human sperm, ABHD2 western blot; type: binding; conditions: 250 nM P4*
T1 construct: endogenous in cells; host or cells: human spermatozoa
T1 sequence (P08910 1-425): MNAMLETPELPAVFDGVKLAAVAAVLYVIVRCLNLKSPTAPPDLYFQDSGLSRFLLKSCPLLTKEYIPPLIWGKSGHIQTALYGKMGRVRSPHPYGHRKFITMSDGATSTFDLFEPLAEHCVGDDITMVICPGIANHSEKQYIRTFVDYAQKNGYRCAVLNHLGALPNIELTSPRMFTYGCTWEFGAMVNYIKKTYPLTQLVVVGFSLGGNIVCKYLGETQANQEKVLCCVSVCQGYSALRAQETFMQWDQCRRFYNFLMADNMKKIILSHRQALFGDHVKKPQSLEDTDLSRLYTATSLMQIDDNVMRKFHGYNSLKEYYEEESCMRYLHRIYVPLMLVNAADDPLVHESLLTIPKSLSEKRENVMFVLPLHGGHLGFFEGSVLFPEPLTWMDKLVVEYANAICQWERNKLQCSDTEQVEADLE
Description: After collection, sperm cells were treated with 0.5 units (U) of PI-PLC ([…]; Life Technologies, Carlsbad, Calif.) and incubated at 37° C. for an hour. […] Lysates were added to streptavidin coated magnetic beads (65001; Life Technologies, Carlsbad, Calif.) on ice for another thirty minutes with gentle agitation. Bound proteins were eluted by boiling in Laemmli Sample Buffer in the presence of beta-mercaptoethanol and subjected to SDS-polyacrylamide gel electrophoresis. […] Bands were excised and subjected to in-gel trypsinization after which peptides were extracted and dried for use in proteomic analysis. Protease inhibitors were used throughout the following procedure. Highly motile sperm swim-up fraction was subjected to osmotic shock by a 5 min incubation in 0.5×HS solution, addition of 10 mM EDTA and 10 mM DTT for 10 min, and sonication in a water bath at 25° C. for 5 min. Osmolarity was adjusted by addition of 10×PBS. 5× Laemmli sample buffer was added to a final 1× concentration and the DTT concentration adjusted to 20 mM. An additional 5 min sonication and boiling at 100° C. for 5 min were performed. Total crude cell lysate was loaded onto a 4-20% gradient Tris-HCl CriterionTM SDS-PAGE gel (BioRad). […] Following transfer to PVDF membranes, blots were blocked in 0.1% PBS-Tween20 with 3% IgG free BSA for 15 min and incubated in primary antibodies overnight at 4° C. […]

[2] = tested on: human spermatozoa; assay: Sperm motility analysis (CASA); type: cell-based; conditions: progesterone 3 μM, 37° C.
[3] = tested on: human CatSper channel; conditions: shown previously (Lishko et al., 2011); cited from earlier work

Row | SMILES | ABHD2 in P4* pull-down in the presence of competing steroid [1] | effect on linearity (LIN) and straightness (STR) of sperm motility [2] | interference with P4 activation of CatSper [3]
1 | CC(=O)[C@H]1CC[C@H]2[C@@H]3CCC4=CC(=O)CC[C@]4(C)[C@H]3CC[C@]12C [P4, progesterone] | absence from all negative controls | no significant progesterone induced effect | –
2 | CC#C[C@]1(O)CC[C@H]2[C@@H]3CCC4=CC(=O)CCC4=C3[C@@H](c3ccc(N(C)C)cc3)C[C@@]21C [Ru486] | ABHD2 presence in pull-down experiments | – | do not interfere with P4 activation of CatSper
